# From the supplement of paper PMC12067093, “Discovery and optimisation of a covalent ligand for TRIM25 and its application to targeted protein ubiquitination” (Chemical Science, 2025)
# This is one part of the list.
# Compound: CC1Cc2ccccc2N1C(=O)C1CCCN(C1)C(=O)CCl (mixture of isomers) [TRIM25 ligand 11 (diastereomer mixture)]
# Test: probe-labelled cysteine peptide fold change vs DMSO (competition) (log2 fold change); higher = less target engagement (more negative = stronger competition)
# Details: THP-1, incubation time: 4 h
# 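Also: competitive chemoproteomic profiling in live THP-1 cells with an iodoacetamide desthiobiotin (IA-DTB) probe, comparing probe-labelled peptide intensities in compound-treated cells against DMSO-treated controls.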
Target,probe-labelled cysteine peptide fold change (10 µM),probe-labelled cysteine peptide fold change (50 µM)
GNPDA2_Q8TDQ7_118_HIDIDPNNAHILDGNAADLQAECDAFENK (UniProt Q8TDQ7),-0.109,0.0113
GPD2_P43304_45_AADCISEPVNR (UniProt P43304),0.135,-0.202
GPHN_Q9NQX3_26_VGVLTVSDSCFR (UniProt Q9NQX3),-0.027,-0.0657
GNAI2_P04899_112_QLFALSCTAEEQGVLPDDLSGVIRR (UniProt P04899),-0.0984,-0.0698
GOLGA2_Q08379_984_ERPGLGSNPCIPFFYR (UniProt Q08379),-0.062,-0.0279
GNPNAT1_Q96EK6_128_VEDVVVSDECR (UniProt Q96EK6),0.0198,0.123
GMEB2_Q9UKD1_96_MAEEGENLEAEIVYPITCGDSR (UniProt Q9UKD1),-0.382,0.185
GPATCH11_Q8N954_195_ACQQLDVQK (UniProt Q8N954),-0.107,-0.0743
GLYR1_Q49A26_486_CQNILQGNFKPDFYLK (UniProt Q49A26),0.00574,-0.0249
GMIP_Q9P107_274_AQEAEALYQACVR (UniProt Q9P107),0.071,0.0497
GNAI1_P63096_139_DSGVQACFNR (UniProt P63096),-0.0266,0.0893
GLS_O94925_518+525_GIHFCHDLVSLCNFHNYDNLR (UniProt O94925),0.00954,-0.0125
GPD1L_Q8N335_343_PVQEMLSCLQSHPEHT (UniProt Q8N335),-0.189,0.188
GOLGB1_Q14789_1462_QLQVELCEMK (UniProt Q14789),-0.188,-0.263
GMPR2_Q9P2T1_186_VGIGPGSVCTTR (UniProt Q9P2T1),-0.0269,-0.0815
GLRX3_O76003_146_LTHAAPCMLFMK (UniProt O76003),-0.112,0.03
GNL3_Q9BVP2_131_LYCQELKK (UniProt Q9BVP2),-0.126,-0.0909
GMIP_Q9P107_571_CTAEIEHR (UniProt Q9P107),0.204,0.281
GNB1L_Q9BYB4_206_IACHEEPVMDLDFDSQK (UniProt Q9BYB4),-0.114,-0.153
GNB1_P62873_271_ADQELMTYSHDNIICGITSVSFSKSGR (UniProt P62873),0.0306,0.00182
GLG1_Q92896_984_LSSDCEDQIR (UniProt Q92896),0.0171,-0.068

Target,probe-labelled cysteine peptide fold change (10 µM),probe-labelled cysteine peptide fold change (50 µM)
GOSR2_O14653_18_QVHEIQSCMGR (UniProt O14653),-0.0255,-0.192
GMFG_O60234_8_SDSLVVCEVDPELTEK (UniProt O60234),-0.0867,-0.174
GNPNAT1_Q96EK6_150_KLNCYK (UniProt Q96EK6),-0.13,0.167
GMPR2_Q9P2T1_348_VTQQVNPIFSEAC (UniProt Q9P2T1),-0.391,-0.155
GPATCH8_Q9UKJ3_402_EEGAGATEPEYYHYIPPAHCK (UniProt Q9UKJ3),-0.0792,-0.165
GNPTG_Q9UJJ9_142_VELACGK (UniProt Q9UJJ9),-0.0795,0.0905
GNB4_Q9HAV0_271_ADQELLLYSHDNIICGITSVAFSK (UniProt Q9HAV0),0.0483,0.11
GNL1_P36915_517_LSLCFHPPGYSEQK (UniProt P36915),-0.00574,-0.0557
GNB1L_Q9BYB4_5_TAPCPPPPPDPQFVLR (UniProt Q9BYB4),0.293,-0.103
GOLGA4_Q13439_1253_ISHCQHR (UniProt Q13439),0.0124,-0.0149
GORAB_Q5T7V8_354_CQEQAVSPK (UniProt Q5T7V8),0.15,-0.232
GLG1_Q92896_316_HLYFACR (UniProt Q92896),0.0481,0.198
GOLGA4_Q13439_1269_TCTVSELEAQLR (UniProt Q13439),-0.0978,-0.107
GNAI3_P08754_139_DGGVQACFSR (UniProt P08754),0.0309,-0.0537
GNB1_P62873_294_LLLAGYDDFNCNVWDALK (UniProt P62873),0.00644,0.00914
GNPTG_Q9UJJ9_157+169_LAHVSEPSTCVYALTFETPLVCHPHALLVYPTLPEALQR (UniProt Q9UJJ9),0.187,0.167
GLUL_P15104_99_LVLCEVFK (UniProt P15104),-0.0968,0.128
GOT2_P00505_382_KEGSTHNWQHITDQIGMFCFTGLKPEQVER (UniProt P00505),0.00342,0.0459
GMIP_Q9P107_529_CLETLLILCGHR (UniProt Q9P107),0.102,0.271
GOT2_P00505_212_IPEQSVLLLHACAHNPTGVDPRPEQWK (UniProt P00505),0.207,0.182
GLRX_P35754_79_DCIGGCSDLVSLQQSGELLTR (UniProt P35754),-0.0051,-0.14

Target,probe-labelled cysteine peptide fold change (10 µM),probe-labelled cysteine peptide fold change (50 µM)
GMPS_P49915_137_EDGVFNISVDNTCSLFR (UniProt P49915),-0.0439,-0.2
GLG1_Q92896_155_HTWSNNLAVLECLQDVREPENEISSDCNHLLWNYK (UniProt Q92896),-0.0518,0.0279
GLA_P06280_94_DAGYEYLCIDDCWMAPQR (UniProt P06280),-0.489,-0.044
GLG1_Q92896_190_ECADEPVGK (UniProt Q92896),0.0707,0.307
GLMN_Q92990_406_CLLNTSNHSGVEAFIIQNIK (UniProt Q92990),0.0882,-0.082
GPHN_Q9NQX3_676_CILTWHHQEPLPWAQSTGNQMSSR (UniProt Q9NQX3),-0.128,-0.00354
GNL3_Q9BVP2_158_CPQVEEAIVQSGQK (UniProt Q9BVP2),0.259,0.0585
GMIP_Q9P107_525_ECEAFMVSGTECEECFLTCHK (UniProt Q9P107),-0.116,0.0352
GOLGA2_Q08379_356_CEAPDANQQLQQAMEER (UniProt Q08379),0.0706,0.0628
GNB2_P62879_149_ELPGHTGYLSCCR (UniProt P62879),0.00625,-0.0766
GNL3_Q9BVP2_156_VIEASDVVLEVLDARDPLGCR (UniProt Q9BVP2),-0.281,-0.229
GMIP_Q9P107_599_LCQAFENGR (UniProt Q9P107),0.00421,0.0642
GNAQ_P50148_144_SLWNDPGIQECYDR (UniProt P50148),-0.0686,-0.0854
GNL1_P36915_365_YKDGVVTIGCVGFPNVGK (UniProt P36915),-0.304,-0.317
GLOD4_Q9HC38-2_41_VLRHEEFEEGCK (UniProt Q9HC38),-0.145,-0.287
GLG1_Q92896_118_LAEEESCR (UniProt Q92896),0.114,0.00992
GLG1_Q92896_659_TETGQELECLQDHLDDLVVECR (UniProt Q92896),0.00634,-0.0874
GPATCH8_Q9UKJ3_508_VSETQMCESNSSK (UniProt Q9UKJ3),-0.113,-0.231
GOSR1_O95249_34_LCTSYSHSSTR (UniProt O95249),0.125,-0.189
GLOD4_Q9HC38_221_IAFSCPQK (UniProt Q9HC38),-0.027,0.292
GNB2_P62879_294_LLLAGYDDFNCNIWDAMK (UniProt P62879),-0.00796,0.0612

Target,probe-labelled cysteine peptide fold change (10 µM),probe-labelled cysteine peptide fold change (50 µM)
GORASP2_Q9H8Y8_173_LYVYNTDTDNCR (UniProt Q9H8Y8),0.0137,0.0227
GLE1_Q53GS7_287_GNQLCSLISGIIR (UniProt Q53GS7),-0.111,-0.0059
GLUD1_P00367_376_AKPYEGSILEADCDILIPAASEK (UniProt P00367),-0.0576,-0.0767
GK_P32189_220_QLCEFFGIPMEILPNVR (UniProt P32189),0.359,-0.0142
GOLGA2_Q08379_794_EPEAAAPAPGTGGDSVCGETHR (UniProt Q08379),0.00942,-0.216
GMIP_Q9P107_508_ECEAFMVSGTECEECFLTCHK (UniProt Q9P107),-0.086,-0.0785
GPD2_P43304_285_CVINATGPFTDSVR (UniProt P43304),0.0856,0.134
GOLPH3_Q9H4A6_84_DREGYTSFWNDCISSGLR (UniProt Q9H4A6),0.0511,0.0748
GNS_P15586_518_LMMLQSCSGPTCR (UniProt P15586),-0.229,-0.0707
GNB4_Q9HAV0_294_LLLAGYDDFNCNVWDTLK (UniProt Q9HAV0),0.139,0.0914
GPATCH8_Q9UKJ3_639_MDAPASGSACSGLNK (UniProt Q9UKJ3),0.0227,-0.238
GLA_P06280_223_QYCNHWR (UniProt P06280),0.0474,-0.0618
GPBP1L1_Q9HC44_365_ENGEEGCHQNGLALPVVEEGEVLSHSLEAEHR (UniProt Q9HC44),-0.129,-0.256
GOLGA4_Q13439_1862_ELDSCLVR (UniProt Q13439),-0.0413,0.0304
GNL1_P36915_410_LCDCPGLIFPSLLPR (UniProt P36915),0.0375,0.118
GNB1_P62873_148+149_ELAGHTGYLSCCR (UniProt P62873),-0.132,-0.182
GOLGA3_Q08378_391_DSICSSVSLESSAAETQEEMLQVLK (UniProt Q08378),-0.0584,-0.0915
GOLGB1_Q14789_2279_VCDTLQGENK (UniProt Q14789),-0.0244,-0.109
GOLGB1_Q14789_1964_CVSELEEEK (UniProt Q14789),-0.0139,0.0208
GNPNAT1_Q96EK6_157_ITLECLPQNVGFYK (UniProt Q96EK6),-0.109,0.0617
GNPDA1_P46926_118_HIDIHPENTHILDGNAVDLQAECDAFEEK (UniProt P46926),-0.077,0.12
